Patent US5550110A (Warner-Lambert Company, priority 1994, dated 1996)
HELM strings list residues between dots; [ac] is acetyl, [am] amide, other brackets name non-standard units.

Assay: general procedure: Boc solid-phase peptide synthesis; PAM or MBHA resin; N-α-Boc-Trp-PAM resin (0.70 meq/g); dicyclohexylcarbodiimide; activated esters or anhydrides of N-alpha-Boc amino ac
Conditions: late stage modification step, RP-HPLC, capillary electrophoresis, TLC, NMR, FAB-MS

Substance: PEPTIDE1{[ac].[D-Bhg].L.D.I.I.W}$$$$V2.0
- purity (crude or final not stated): 99%
